Experimental data reported in PubChem BioAssay AID1347076 (National Center for Advancing Translational Sciences (NCATS), 2019).
The campaign covered roughly 400,000 compounds. About 13,000 (3.2%) were called active. The inconclusive results got no clear call from the source; some entries with a clear call stand among them for comparison. Calls follow the shape of the dose curve; as a rule, active = well fitted cell-killing curve with a large enough effect; inconclusive = small, poorly fitted or top-dose-only effect, or effect the other way; inactive = flat fitted curve, though single readings scatter. Where the call is inconclusive, the potency comes from a doubtful curve fit.

Assay: qHTS assay for MDR1-selective chemotherapeutics: Primary screen using the drug-selected MDR subline cells KB-V1; also: nearly all actives have a fitted effect of over 60% in size
Conditions: KB-V1 MDR cells viability, CellTiter-Glo, 72 h; series mostly up to 46.1 µM
Method in brief: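 Compound-treated KB-V1 multidrug-resistant cells, 72 h, 37 degrees C; viability by CellTiter-Glo. Fitted qHTS curves give the values.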
Potency is read from the fitted curve at half-maximal effect.

SMILES | Potency
CC(=O)N1CCN(C(=O)c2cc3c(s2)CCC(C)C3)CC1 (configuration not stated) | inconclusive: 20.6 µM [cytotoxic, single point]
Cn1c(=O)c2c(-c3ccccc3)n(-c3ccc(N)cc3)cc2n(C)c1=O | inactive
CCSc1nnc(NC(=O)C(C)(C(F)(F)F)C(F)(F)F)s1 | inactive
O=C(CSc1nc2ccccc2n1Cc1ccc(F)c(Cl)c1)N1CCN(c2ccc(F)cc2)CC1 | inconclusive: 13 µM [cytotoxic, partial curve]
Cc1cccc(-n2ccnc2SCC(=O)Nc2ccccc2C(F)(F)F)c1 | inconclusive: 29.1 µM [rising, single point]
CCc1ccc(-n2c(C)nc3cc(C(=O)NCc4cccnc4)ccc32)cc1 | inconclusive: 11.6 µM [cytotoxic, partial curve, poor fit]
CCCn1c(SCC(=O)N(C)C2CCS(=O)(=O)C2)nc2sc3c(c2c1=O)CCC3 (configuration not stated) | active: 23.1 µM
CCc1cc(=O)oc2cc(C)cc(OC(C)C(=O)NCCN3CCOCC3)c12 (configuration not stated) | inactive
O=C(/C=C\c1ccco1)Oc1cccc2cccnc12 | inactive
COc1ccc(Cl)cc1NC(=O)c1cccnc1 | inconclusive: 16.4 µM [cytotoxic, partial curve, poor fit]
COc1cccc2[nH]c3c(N4CCc5ccccc5C4)ncnc3c12 | inactive
CC(C)(CO)NC(=O)C12CC3CC(CC(Br)(C3)C1)C2 | inconclusive: 16.4 µM [rising, partial curve]
N#Cc1c(Nc2ccccc2)sc(C(=O)c2ccc(F)cc2)c1N | inactive
CC(C)N1CC(C(=O)Nc2cccc([N+](=O)[O-])c2)CC1=O (configuration not stated) | inconclusive: 20.6 µM [rising, partial curve, poor fit]
Cc1cc(C)c(OCC(=O)OCC(=O)NCCC2=CCCCC2)c(C)c1 | inconclusive: 0.411 µM [cytotoxic, full curve]
CCCN1CCN(CCCNC(=O)Cn2nc(C)n3c(cc4cc(F)ccc43)c2=O)CC1 | inconclusive: 8.2 µM [rising, partial curve]
COc1cc(NC(=O)c2cccs2)c(C(=O)OCC(=O)NCc2ccccc2)cc1OC | inconclusive: 25.9 µM [cytotoxic, single point]
CCCCN1C(=O)C(O)(c2ccccc2)c2cc(Br)ccc21 (configuration not stated) | inconclusive: 0.92 µM [cytotoxic, partial curve, poor fit]
COc1cc(NC(=O)c2ccc(C(=O)Nc3cc(OC)c(Cl)cc3OC)cc2)c(OC)cc1Cl | inconclusive: 11.6 µM [rising, partial curve, poor fit]
COc1ccc(-c2csc(N(CCCN3CCOCC3)C(=O)c3ccco3)n2)cc1 | inconclusive: 29.1 µM [cytotoxic, single point]
Cc1ccccc1N(CC(=O)N/N=C/c1cc(Br)c(C)o1)S(C)(=O)=O | inconclusive: 20.6 µM [cytotoxic, single point]

Three compounds drawn at random from those above, as already listed:
SMILES | Potency
Cc1cccc(-n2ccnc2SCC(=O)Nc2ccccc2C(F)(F)F)c1 | inconclusive: 29.1 µM [rising, single point]
Cc1cc(C)c(OCC(=O)OCC(=O)NCCC2=CCCCC2)c(C)c1 | inconclusive: 0.411 µM [cytotoxic, full curve]
CC(C)(CO)NC(=O)C12CC3CC(CC(Br)(C3)C1)C2 | inconclusive: 16.4 µM [rising, partial curve]

Next results follow.

SMILES | Potency
O=C(CSc1cc(Cl)ccc1Cl)NCC1CCCO1 (configuration not stated) | inconclusive: 20.6 µM [cytotoxic, partial curve]
COc1ccc(C(=O)C(CN2CCCC2)c2ccccc2)cc1 (configuration not stated) | active: 7.08 µM
COC(=O)c1sccc1NC(=O)Nc1cc(C)cc(C)c1 | inconclusive: 29.1 µM [rising, single point]
Cn1c(SCC(=O)NNC(=O)c2ccccc2O)nnc1-c1ccccc1 | inconclusive: 14.6 µM [cytotoxic, single point]
Cc1cc(C(=O)N/N=C/c2c(C)nn(-c3ccccc3)c2C)n[nH]1 | inactive
COc1ccccc1/C=C\C=N\n1c(-c2ccc(Cl)cc2Cl)n[nH]c1=S | inactive
CC1CCC(NC(=O)c2[nH]c(C(F)(F)F)nc2-c2ccccc2)CC1 (configuration not stated) | inconclusive: 29.1 µM [cytotoxic, single point]
CCC(=O)N1CCc2cc(Br)cc(S(=O)(=O)CCC(=O)NCc3ccccc3)c21 | inconclusive: 4.61 µM [rising, full curve, poor fit]
C/C(=N\NC(=O)Cn1nc(C)c([N+](=O)[O-])c1C)c1ccc(Cl)s1 | inconclusive: 18.4 µM [rising, single point]
CCN(C(=O)COC(=O)COc1ccc2c(c1)CCC2)c1c(N)n(Cc2ccccc2)c(=O)[nH]c1=O | inconclusive: 23.1 µM [rising, single point]
Cc1ccc2cc(CN(CC3CCCO3)C(=S)NCc3ccco3)c(=O)[nH]c2c1 (configuration not stated) | inconclusive: 4.61 µM [cytotoxic, full curve]
Cc1cc(C(=O)Cn2nc(C(=O)O)c3ccccc3c2=O)c(C)n1CCc1ccc(Cl)cc1 | inconclusive: 18.4 µM [cytotoxic, single point]
COc1ccc(CNCc2cc3c(C(C)(C)C)nn(-c4ccccc4)c3[nH]c2=O)cc1 | inconclusive: 20.6 µM [cytotoxic, single point]
CSc1cccc(NC(=O)CN(C)S(=O)(=O)c2ccc3c(c2)n(C)c(=O)c(=O)n3C)c1 | inactive
COC(=O)CN(c1cc(Cl)ccc1OC)S(=O)(=O)c1ccc(C)cc1 | inconclusive: 18.4 µM [cytotoxic, single point]
COc1ccccc1N1CCN(C(=O)CSc2nc3ccccc3c(=O)n2CC2CCCO2)CC1 (configuration not stated) | inconclusive: 32.6 µM [cytotoxic, single point]
C=CCn1c(=O)[nH]c2cc(C(=O)N3CCN(c4cccc(Cl)c4)CC3)ccc2c1=O | active: 11.6 µM
CCN1C(=O)[C@H]2[C@@H](c3ccc(-c4ccc(C(C)=O)cc4)cc3)N3CCCC[C@@]3(C(=O)OC)[C@H]2C1=O | inconclusive: 29.1 µM [cytotoxic, single point]
O=C(Nc1nnc(SCc2cccc3ccccc23)s1)C1COc2ccccc2O1 (configuration not stated) | inconclusive: 16.4 µM [cytotoxic, single point]
COc1ccc(CN2C(=O)c3ccccc3C2c2nnnn2Cc2ccccc2)cc1 (configuration not stated) | inconclusive: 8.2 µM [cytotoxic, partial curve]
CC(=O)NNc1[nH]c2c(c(=O)c1[N+](=O)[O-])c(=O)n(C)c(=O)n2C | inconclusive: 29.1 µM [rising, single point]
